Reference: patent publication US8309097
Results are given in words; binding and its absence hold for the method and conditions named. Some entries that bind do so weakly or less than the wild type.

Protein sequences, listed by entry. Tags and fused reporters are not part of them. Lines headed by an entry give the natural chain unless they say otherwise; changes in a name come on top. Residues count along the entry.
UniProt P13688: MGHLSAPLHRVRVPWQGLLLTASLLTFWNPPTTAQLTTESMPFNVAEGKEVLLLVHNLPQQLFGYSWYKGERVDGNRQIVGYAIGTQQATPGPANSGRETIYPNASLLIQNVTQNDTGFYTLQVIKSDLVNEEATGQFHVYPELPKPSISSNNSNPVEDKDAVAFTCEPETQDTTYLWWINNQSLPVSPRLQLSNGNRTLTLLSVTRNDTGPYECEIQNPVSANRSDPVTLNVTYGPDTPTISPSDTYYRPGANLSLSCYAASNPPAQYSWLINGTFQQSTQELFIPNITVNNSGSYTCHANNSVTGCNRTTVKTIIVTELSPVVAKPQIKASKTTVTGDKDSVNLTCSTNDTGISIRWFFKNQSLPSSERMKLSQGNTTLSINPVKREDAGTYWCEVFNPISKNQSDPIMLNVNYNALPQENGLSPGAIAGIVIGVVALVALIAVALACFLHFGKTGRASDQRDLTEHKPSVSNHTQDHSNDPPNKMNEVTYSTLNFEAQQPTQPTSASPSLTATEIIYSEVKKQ
CEACAM1 (CD66a), native, from PMN: residues 35-526 of P13688
CD66a-Fc: residues 35-428 of P13688
UniProt Q9NNX6: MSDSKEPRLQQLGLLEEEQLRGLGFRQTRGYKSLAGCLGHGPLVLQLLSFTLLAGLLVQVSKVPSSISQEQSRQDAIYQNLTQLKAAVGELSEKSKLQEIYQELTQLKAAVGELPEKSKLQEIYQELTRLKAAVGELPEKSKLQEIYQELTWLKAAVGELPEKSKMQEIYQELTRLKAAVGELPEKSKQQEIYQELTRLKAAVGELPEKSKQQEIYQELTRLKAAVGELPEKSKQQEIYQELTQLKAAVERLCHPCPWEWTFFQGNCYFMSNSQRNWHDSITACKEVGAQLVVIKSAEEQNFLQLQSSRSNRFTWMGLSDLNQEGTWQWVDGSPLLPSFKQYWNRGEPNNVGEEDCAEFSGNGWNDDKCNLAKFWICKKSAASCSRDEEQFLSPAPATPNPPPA

Assays:
CD66a-Fc [1] = target: CD66a-Fc (UniProt P13688); experiment: beads coated with CD66a-Fc on immature DC and K562-DC-SIGN
CD66a-Fc [2] = target: CD66a-Fc (UniProt P13688); experiment: beads coated with CD66a-Fc, immature DC and K562-DC-SIGN
[3] = target: CEACAM1 (CD66a), native, from PMN (UniProt P13688); experiment: summary of the results of FIGS. 54, 55 and 59
[4] = target: CEACAM1 (CD66a), native, from PMN (UniProt P13688); experiment: beads coated with PMN CEACAM1, FACS

binding (CD66a-Fc [1]): binds | binding (CD66a-Fc [2]): binds | binding [3]: binds | binding [4]: binds
Substance: DC-SIGN (CD209), wild type, expressed on K562 transfectants or immature dendritic cells (from UniProt Q9NNX6 1-404) (receptor)
